Laboratory results reported in US7425631B2 (Amgen Inc., priority 2003, dated 2008).
pIC50: −log10 of the molar value. Some entries share one result that the patent states for a list of compounds.

What follows are compounds tested against T1, human B1 receptor (Homo sapiens, UniProt P46663) (assay: In vitro assay of human B1 receptor function using calcium flux (aequorin luminescence)). Settings: CHO D-/hB1/Aequorin cells, agonist 20 nM des-Arg10-Kallidin (EC80); read-out: binding IC50's to hB1 receptor function.
T1 construct: expressed in transfected cells
T1 sequence (P46663 1-353): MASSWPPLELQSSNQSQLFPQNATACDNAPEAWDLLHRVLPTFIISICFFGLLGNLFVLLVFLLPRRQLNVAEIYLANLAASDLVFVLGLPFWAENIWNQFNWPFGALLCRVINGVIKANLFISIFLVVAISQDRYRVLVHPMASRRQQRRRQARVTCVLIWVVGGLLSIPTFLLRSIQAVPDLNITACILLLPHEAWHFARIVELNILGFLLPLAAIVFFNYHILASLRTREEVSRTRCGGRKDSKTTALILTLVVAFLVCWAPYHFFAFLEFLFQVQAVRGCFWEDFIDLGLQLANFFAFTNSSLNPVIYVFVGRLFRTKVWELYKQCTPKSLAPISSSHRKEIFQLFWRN
Type: cell-based
Procedure: Activation of the Gq linked B1 receptor results in an increase in intracellular calcium. […] Aequorin is a 21-kDa photoprotein that forms a bioluminescent complex when linked to the chromophore cofactor coelenterazine.
Following coelenterazine incubation, an automated flash-luminometer platform was used to dispense the B1 antagonist compounds (dissolved in DMSO and diluted with buffer to the desired concentration (final DMSO concentration <1% DMSO)) to the cell plate, a CCD camera situated underneath the cell plate took 12 images of the cell plate at 5 second intervals to determine if there was any agonist activity with the compounds. The hB1 agonist, des-Arg10-Kallidin, was added to the cell plate and another 12 images were recorded to determine the IC50 of the antagonist(s).

pIC50, > 7.00:
CC(C)(C)NCc1ccc2c(c1)OCC[C@H]2NC(=O)C[C@@H](NS(=O)(=O)c1ccc(F)c(C(F)(F)F)c1)c1ccccc1 [Example 193, (3R)-N-((4R)-7-(((1,1-Dimethylethyl)amino)methyl)-3,4-dihydro-2H-chromen-4-yl)-3-(((4-fluoro-3-(trifluoromethyl)phenyl)sulfonyl)amino)-3-phenylpropanamide]
CC(C)(C)NCc1ccc2c(c1)OCC[C@H]2NC(=O)C[C@@H](NS(=O)(=O)c1cc(C(F)(F)F)ccc1Cl)c1ccccc1 [Example 194, (3R)-3-(((2-Chloro-5-(trifluoromethyl)phenyl)sulfonyl)amino)-N-((4R)-7-(((1,1-dimethylethyl)amino)methyl)-3,4-dihydro-2H-chromen-4-yl)-3-phenylpropanamide]
CC(C)(C)NCc1ccc2c(c1)OCC[C@H]2NC(=O)C[C@@H](NS(=O)(=O)c1cc(Cl)c(F)cc1F)c1ccccc1 [Example 195, (3R)-3-(((5-Chloro-2,4-difluorophenyl)sulfonyl)amino)-N-((4R)-7-(((1,1-dimethylethyl)amino)methyl)-3,4-dihydro-2H-chromen-4-yl)-3-phenylpropanamide]
O=C(C[C@@H](NS(=O)(=O)c1cccc(C(F)(F)F)c1)c1ccccc1)N[C@@H]1CCOc2cc(CN3C4CCC3CC4)ccc21 [Example 196, (3R)-N-((4R)-7-(7-Azabicyclo[2.2.1]hept-7-ylmethyl)-3,4-dihydro-2H-chromen-4-yl)-3-phenyl-3-(((3-(trifluoromethyl)phenyl)sulfonyl)amino)propanamide]
O=C(C[C@@H](NS(=O)(=O)c1cccc(C(F)(F)F)c1)c1ccccc1)N[C@@H]1CCOc2cc(CN3CCC(F)(F)CC3)ccc21 [Example 198, (3R)-N-((4R)-7-((4,4-Difluoro-1-piperidinyl)methyl)-3,4-dihydro-2H-chromen-4-yl)-3-phenyl-3-(((3-(trifluoromethyl)phenyl)sulfonyl)amino)propanamide]
O=C(C[C@@H](NS(=O)(=O)c1cccc(C(F)(F)F)c1)c1ccccc1)N[C@@H]1CCc2cc(CN3CCC(F)(F)CC3)ccc21 [Example 199, (3R)-N-((1R)-5-((4,4-Difluoro-1-piperidinyl)methyl)-2,3-dihydro-1H-inden-1-yl)-3-phenyl-3-(((3-(trifluoromethyl)phenyl)sulfonyl)amino)propanamide]
Cc1ccc(S(=O)(=O)N[C@H](CC(=O)N[C@@H]2CCOc3cc(CNC(C)(C)C)ccc32)c2ccccc2)cc1Cl [Example 206, (3R)-3-(((3-Chloro-4-methylphenyl)sulfonyl)amino)-N-((4R)-7-(((1,1-dimethylethyl)amino)methyl)-3,4-dihydro-2H-chromen-4-yl)-3-phenylpropanamide]
CC(C)(C)NCc1ccc2c(c1)OCC[C@H]2NC(=O)C[C@@H](NS(=O)(=O)c1ccc(C(C)(C)C)cc1)c1ccccc1 [Example 207, (3R)-N-((4R)-7-(((1,1-Dimethylethyl)amino)methyl)-3,4-dihydro-2H-chromen-4-yl)-3-(((4-(1,1-dimethylethyl)phenyl)sulfonyl)amino)-3-phenylpropanamide]
O=C(C[C@@H](NS(=O)(=O)c1cccc(C(F)(F)F)c1)c1ccc(F)cc1)N[C@@H]1CCCc2cc(CCNC3CCC3)ccc21 [Example 209c, (3R)-N-((1R)-6-(2-(cyclobutylamino)ethyl)-1,2,3,4-tetrahydro-1-naphthalenyl)-3-(4-fluorophenyl)-3-(((3-(trifluoromethyl)phenyl)sulfonyl)amino)propanamide]
O=C(C[C@@H](NS(=O)(=O)c1cccc(C(F)(F)F)c1)c1ccc(F)cc1)N[C@@H]1CCCc2cc(CCN3CCCC3)ccc21 [Example 209f, (3R)-3-(4-fluorophenyl)-N-((1R)-6-(2-(1-pyrrolidinyl)ethyl)-1,2,3,4-tetrahydro-1-naphthalenyl)-3-(((3-(trifluoromethyl)phenyl)sulfonyl)amino)propanamide]
O=C(C[C@@H](NS(=O)(=O)c1cccc(C(F)(F)F)c1)c1ccc(F)cc1)N[C@@H]1CCCc2cc(CCN3CCCCC3)ccc21 [Example 209h, (3R)-3-(4-fluorophenyl)-N-((1R)-6-(2-(1-piperidinyl)ethyl)-1,2,3,4-tetrahydro-1-naphthalenyl)-3-(((3-(trifluoromethyl)phenyl)sulfonyl)amino)propanamide]
C=C(CNC1CCC1)c1ccc2c(c1)CCC[C@H]2NC(=O)C[C@@H](NS(=O)(=O)c1cccc(C(F)(F)F)c1)c1ccccc1 [Example 218a, (3R)-N-((1R)-6-(1-((cyclobutylamino)methyl)-ethenyl)-1,2,3,4-tetrahydro-1-naphthalenyl)-3-phenyl-3-(((3-(trifluoromethyl)phenyl)sulfonyl)-amino)propanamide]
C=C(CN1CCCCC1)c1ccc2c(c1)CCC[C@H]2NC(=O)C[C@@H](NS(=O)(=O)c1ccc(Cl)c(Cl)c1)c1ccccc1 [Example 218d, (3R)-3-(((3,4-dichlorophenyl)sulfonyl)amino)-3-phenyl-N-((1R)-6-(1-(1-piperidinylmethyl)ethenyl)-1,2,3,4-tetrahydro-1-naphthalenyl)propanamide]
C=C(CN1CCC1)c1ccc2c(c1)CCC[C@H]2NC(=O)C[C@@H](NS(=O)(=O)c1cccc(C(F)(F)F)c1)c1ccccc1 [Example 218f, (3R)-N-((1R)-6-(1-(1-azetidinylmethyl)ethenyl)-1,2,3,4-tetrahydro-1-naphthalenyl)-3-phenyl-3-(((3-(trifluoromethyl)phenyl)sulfonyl)amino)propanamide]
C=C(CNCCO)c1ccc2c(c1)CCC[C@H]2NC(=O)C[C@@H](NS(=O)(=O)c1cccc(C(F)(F)F)c1)c1ccccc1 [Example 218h, methyl 1-(2-((5R)-5-(((3R)-3-phenyl-3-(((3-(trifluoromethyl)phenyl)sulfonyl)amino)propanoyl)amino)-5,6,7,8-tetrahydro-2-naphthalenyl)-2-propenyl)-L-prolinate]
C=C(CN1CCCCC1)c1ccc2c(c1)CCC[C@H]2NC(=O)C[C@@H](NS(=O)(=O)c1cccc(C(F)(F)F)c1)c1ccccc1 [Example 218r, (3R)-3-phenyl-N-((1R)-6-(1-(1-piperidinylmethyl)ethenyl)-1,2,3,4-tetrahydro-1-naphthalenyl)-3-(((3-(trifluoromethyl)phenyl)sulfonyl)amino)propanamide]
CC(C)CNC(C)c1ccc2c(c1)CCC[C@H]2NC(=O)C[C@@H](NS(=O)(=O)c1cccc(C(F)(F)F)c1)c1ccccc1 (stereo partly drawn) [Example 220a, (3R)-3-((hydroxy(oxido)(3-(trifluoromethyl)phenyl)-lambda-4—sulfanyl)amino)-N-((1R)-6-((1R)-1-((2-methylpropyl)amino)ethyl)-1,2,3,4-tetrahydro-1-naphthalenyl)-3-phenylpropanamide]
C[C@H](CN1CCCCC1)c1ccc2c(c1)CCC[C@H]2NC(=O)C[C@@H](NS(=O)(=O)c1cccc(C(F)(F)F)c1)c1ccccc1 [Example 220e, (3R)-N-((1R)-6-((1S)-2-(dimethylamino)-1-methylethyl)-1,2,3,4-tetrahydro-1-naphthalenyl)-3-phenyl-3-(((3-(trifluoromethyl)phenyl)sulfonyl)amino)propanamide]
CC(C)CN[C@H](C)c1ccc2c(c1)CCC[C@H]2NC(=O)C[C@@H](NS(=O)(=O)c1ccc2ccccc2c1)c1ccccc1 [Example 220f, (3R)-N-((1R)-6-((1R)-1-((2-methylpropyl)amino)ethyl)-1,2,3,4-tetrahydro-1-naphthalenyl)-3-((2-naphthalenylsulfonyl)amino)-3-phenylpropanamide]
C[C@@H](NCC(C)(C)C)c1ccc2c(c1)CCC[C@H]2NC(=O)C[C@@H](NS(=O)(=O)c1cccc(C(F)(F)F)c1)c1ccccc1 [Example 220k, (3R)-N-((1R)-6-((1R)-1-((2,2-dimethylpropyl)amino)ethyl)-1,2,3,4-tetrahydro-1-naphthalenyl)-3-phenyl-3-(((3-(trifluoromethyl)phenyl)sulfonyl)amino)propanamide]
CC(NCC1CC1)c1ccc2c(c1)CCC[C@H]2NC(=O)C[C@@H](NS(=O)(=O)c1cccc(C(F)(F)F)c1)c1ccc(F)cc1 (stereo partly drawn) [Example 220m, (3R)-N-((1R)-6-((1S)-1-(cyclopropylamino)ethyl)-1,2,3,4-tetrahydro-1-naphthalenyl)-3-(4-fluorophenyl)-3-(((3-(trifluoromethyl)phenyl)sulfonyl)amino)propanamide]
CC(C)CN[C@@H](C)c1ccc2c(c1)CCC[C@H]2NC(=O)C[C@@H](NS(=O)(=O)c1cccc(C(F)(F)F)c1)c1ccccc1 [Example 220n, (3R)-3-((hydroxy(oxido)(3-(trifluoromethyl)phenyl)-lambda˜4˜-sulfanyl)amino)-N-((1R)-6-((1S)-1-((2-methylpropyl)amino)ethyl)-1,2,3,4-tetrahydro-1-naphthalenyl)-3-phenylpropanamide]
